Our source for the binding values is publication doi:10.1101/830802.

The target in experiment [1] is T1, GFP-Auxilin (wild type, human) (human) (UniProt O75061).
T1 sequence: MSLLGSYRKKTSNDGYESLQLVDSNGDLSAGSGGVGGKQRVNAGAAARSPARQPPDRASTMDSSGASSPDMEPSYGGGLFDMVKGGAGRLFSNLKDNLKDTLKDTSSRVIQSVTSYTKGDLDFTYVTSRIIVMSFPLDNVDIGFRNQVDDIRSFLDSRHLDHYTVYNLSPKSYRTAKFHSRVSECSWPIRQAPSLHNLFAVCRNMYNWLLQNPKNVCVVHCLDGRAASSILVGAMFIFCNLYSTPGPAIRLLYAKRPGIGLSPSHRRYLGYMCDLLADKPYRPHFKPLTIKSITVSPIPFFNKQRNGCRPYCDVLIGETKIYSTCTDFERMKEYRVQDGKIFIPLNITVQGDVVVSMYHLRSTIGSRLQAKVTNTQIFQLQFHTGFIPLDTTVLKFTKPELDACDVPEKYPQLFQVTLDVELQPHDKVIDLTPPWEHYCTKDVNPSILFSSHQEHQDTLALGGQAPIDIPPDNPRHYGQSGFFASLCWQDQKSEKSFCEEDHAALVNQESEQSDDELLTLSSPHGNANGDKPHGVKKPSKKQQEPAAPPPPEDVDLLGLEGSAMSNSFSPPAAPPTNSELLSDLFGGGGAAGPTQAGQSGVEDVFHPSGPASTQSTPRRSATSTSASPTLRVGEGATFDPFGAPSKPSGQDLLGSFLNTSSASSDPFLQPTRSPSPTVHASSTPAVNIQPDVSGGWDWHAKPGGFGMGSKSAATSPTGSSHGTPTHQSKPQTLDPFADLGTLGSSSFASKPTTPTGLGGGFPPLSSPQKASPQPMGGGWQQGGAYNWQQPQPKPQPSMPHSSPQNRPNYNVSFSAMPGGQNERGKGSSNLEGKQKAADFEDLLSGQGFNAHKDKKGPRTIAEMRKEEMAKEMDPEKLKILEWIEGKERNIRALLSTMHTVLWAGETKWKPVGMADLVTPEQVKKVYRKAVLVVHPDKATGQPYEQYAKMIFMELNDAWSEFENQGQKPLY
Kind of experiment: co-IP.

For the next experiment, the target named is T2, GFP-GAK (UniProt O14976).
T2 sequence: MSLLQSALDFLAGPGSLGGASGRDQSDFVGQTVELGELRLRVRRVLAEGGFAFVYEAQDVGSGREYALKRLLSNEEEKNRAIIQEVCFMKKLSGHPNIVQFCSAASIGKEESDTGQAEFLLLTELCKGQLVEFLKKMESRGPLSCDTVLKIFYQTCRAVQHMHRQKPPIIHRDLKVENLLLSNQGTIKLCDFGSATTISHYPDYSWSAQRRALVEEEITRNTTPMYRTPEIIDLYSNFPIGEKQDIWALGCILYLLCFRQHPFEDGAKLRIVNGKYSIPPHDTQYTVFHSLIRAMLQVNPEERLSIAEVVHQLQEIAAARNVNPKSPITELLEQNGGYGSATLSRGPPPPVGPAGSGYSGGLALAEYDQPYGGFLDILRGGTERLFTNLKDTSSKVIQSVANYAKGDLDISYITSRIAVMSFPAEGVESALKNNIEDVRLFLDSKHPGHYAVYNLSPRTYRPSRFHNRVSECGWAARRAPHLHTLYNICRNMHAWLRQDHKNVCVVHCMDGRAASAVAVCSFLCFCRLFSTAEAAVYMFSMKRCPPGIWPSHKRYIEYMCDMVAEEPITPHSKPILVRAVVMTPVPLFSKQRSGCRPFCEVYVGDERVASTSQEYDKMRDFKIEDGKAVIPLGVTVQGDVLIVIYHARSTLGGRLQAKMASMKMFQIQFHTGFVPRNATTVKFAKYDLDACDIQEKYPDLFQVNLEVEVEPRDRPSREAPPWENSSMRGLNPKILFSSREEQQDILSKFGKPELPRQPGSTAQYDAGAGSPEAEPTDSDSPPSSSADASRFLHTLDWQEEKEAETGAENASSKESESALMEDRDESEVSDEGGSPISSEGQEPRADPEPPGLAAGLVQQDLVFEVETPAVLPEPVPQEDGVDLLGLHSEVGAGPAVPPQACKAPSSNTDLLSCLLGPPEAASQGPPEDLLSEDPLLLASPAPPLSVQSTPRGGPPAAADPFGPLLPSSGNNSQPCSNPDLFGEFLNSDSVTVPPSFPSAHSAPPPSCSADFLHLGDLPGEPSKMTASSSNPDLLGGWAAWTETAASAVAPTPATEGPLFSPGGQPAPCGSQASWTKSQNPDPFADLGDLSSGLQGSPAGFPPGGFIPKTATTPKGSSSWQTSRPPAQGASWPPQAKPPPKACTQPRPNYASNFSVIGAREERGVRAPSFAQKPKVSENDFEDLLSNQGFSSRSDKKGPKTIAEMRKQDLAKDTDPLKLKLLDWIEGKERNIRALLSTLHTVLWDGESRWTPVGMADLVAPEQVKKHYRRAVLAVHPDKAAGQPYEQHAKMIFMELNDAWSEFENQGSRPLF
Description: co-IP.

These are yes or no findings as the source states them, for the method shown. In cells and extracts the contact can be indirect. Some entries that bind do so weakly or less than the wild type. Tags and fused reporters may be left off the sequences shown.

B1: GGA3, endogenous in HEK293FT (protein, UniProt Q9NZ52 1-723)
chain: MAEAEGESLESWLNKATNPSNRQEDWEYIIGFCDQINKELEGPQIAVRLLAHKIQSPQEWEALQALTVLEACMKNCGRRFHNEVGKFRFLNELIKVVSPKYLGDRVSEKVKTKVIELLYSWTMALPEEAKIKDAYHMLKRQGIVQSDPPIPVDRTLIPSPPPRPKNPVFDDEEKSKLLAKLLKSKNPDDLQEANKLIKSMVKEDEARIQKVTKRLHTLEEVNNNVRLLSEMLLHYSQEDSSDGDRELMKELFDQCENKRRTLFKLASETEDNDNSLGDILQASDNLSRVINSYKTIIEGQVINGEVATLTLPDSEGNSQCSNQGTLIDLAELDTTNSLSSVLAPAPTPPSSGIPILPPPPQASGPPRSRSSSQAEATLGPSSTSNALSWLDEELLCLGLADPAPNVPPKESAGNSQWHLLQREQSDLDFFSPRPGTAACGASDAPLLQPSAPSSSSSQAPLPPPFPAPVVPASVPAPSAGSSLFSTGVAPALAPKVEPAVPGHHGLALGNSALHHLDALDQLLEEAKVTSGLVKPTTSPLIPTTTPARPLLPFSTGPGSPLFQPLSFQSQGSPPKGPELSLASIHVPLESIKPSSALPVTAYDKNGFRILFHFAKECPPGRPDVLVVVVSMLNTAPLPVKSIVLQAAVPKSMKVKLQPPSGTELSPFSPIQPPAAITQVMLLANPLKEKVRLRYKLTFALGEQLSTEVGEVDQFPPVEQWGNL
As for B1, the binding entry in experiment [1] is reported as “binds weakly”; in the experiment with GFP-GAK, “no binding”.
